The assay has as its target T1, Flag-tagged Tespa1 in Jurkat cells (J-Tespa1) (mouse) (UniProt Q3U132).
T1 sequence: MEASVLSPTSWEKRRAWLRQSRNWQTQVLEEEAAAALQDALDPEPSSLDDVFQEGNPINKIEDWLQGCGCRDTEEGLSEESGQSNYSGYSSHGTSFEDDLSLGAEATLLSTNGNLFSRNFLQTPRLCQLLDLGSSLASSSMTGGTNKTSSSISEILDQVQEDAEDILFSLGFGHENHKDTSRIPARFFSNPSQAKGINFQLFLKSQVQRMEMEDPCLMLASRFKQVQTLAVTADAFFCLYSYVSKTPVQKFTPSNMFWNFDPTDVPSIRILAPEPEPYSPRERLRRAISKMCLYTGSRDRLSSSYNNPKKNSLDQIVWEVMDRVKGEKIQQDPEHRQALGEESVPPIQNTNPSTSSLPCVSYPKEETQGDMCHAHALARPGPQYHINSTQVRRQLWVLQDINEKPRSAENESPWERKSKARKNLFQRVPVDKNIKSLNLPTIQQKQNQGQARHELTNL
Put plainly: affinity purification with mass spectrometry; Flag-tagged Tespa1 pulled down with anti-Flag beads from whole-cell lysates of anti-CD3 plus anti-CD28-stimulated Jurkat cells; precipitates to mass spectrometry.

By UniProt entry, the sequences of proteins in these tests, tags left out.
UniProt Q14573: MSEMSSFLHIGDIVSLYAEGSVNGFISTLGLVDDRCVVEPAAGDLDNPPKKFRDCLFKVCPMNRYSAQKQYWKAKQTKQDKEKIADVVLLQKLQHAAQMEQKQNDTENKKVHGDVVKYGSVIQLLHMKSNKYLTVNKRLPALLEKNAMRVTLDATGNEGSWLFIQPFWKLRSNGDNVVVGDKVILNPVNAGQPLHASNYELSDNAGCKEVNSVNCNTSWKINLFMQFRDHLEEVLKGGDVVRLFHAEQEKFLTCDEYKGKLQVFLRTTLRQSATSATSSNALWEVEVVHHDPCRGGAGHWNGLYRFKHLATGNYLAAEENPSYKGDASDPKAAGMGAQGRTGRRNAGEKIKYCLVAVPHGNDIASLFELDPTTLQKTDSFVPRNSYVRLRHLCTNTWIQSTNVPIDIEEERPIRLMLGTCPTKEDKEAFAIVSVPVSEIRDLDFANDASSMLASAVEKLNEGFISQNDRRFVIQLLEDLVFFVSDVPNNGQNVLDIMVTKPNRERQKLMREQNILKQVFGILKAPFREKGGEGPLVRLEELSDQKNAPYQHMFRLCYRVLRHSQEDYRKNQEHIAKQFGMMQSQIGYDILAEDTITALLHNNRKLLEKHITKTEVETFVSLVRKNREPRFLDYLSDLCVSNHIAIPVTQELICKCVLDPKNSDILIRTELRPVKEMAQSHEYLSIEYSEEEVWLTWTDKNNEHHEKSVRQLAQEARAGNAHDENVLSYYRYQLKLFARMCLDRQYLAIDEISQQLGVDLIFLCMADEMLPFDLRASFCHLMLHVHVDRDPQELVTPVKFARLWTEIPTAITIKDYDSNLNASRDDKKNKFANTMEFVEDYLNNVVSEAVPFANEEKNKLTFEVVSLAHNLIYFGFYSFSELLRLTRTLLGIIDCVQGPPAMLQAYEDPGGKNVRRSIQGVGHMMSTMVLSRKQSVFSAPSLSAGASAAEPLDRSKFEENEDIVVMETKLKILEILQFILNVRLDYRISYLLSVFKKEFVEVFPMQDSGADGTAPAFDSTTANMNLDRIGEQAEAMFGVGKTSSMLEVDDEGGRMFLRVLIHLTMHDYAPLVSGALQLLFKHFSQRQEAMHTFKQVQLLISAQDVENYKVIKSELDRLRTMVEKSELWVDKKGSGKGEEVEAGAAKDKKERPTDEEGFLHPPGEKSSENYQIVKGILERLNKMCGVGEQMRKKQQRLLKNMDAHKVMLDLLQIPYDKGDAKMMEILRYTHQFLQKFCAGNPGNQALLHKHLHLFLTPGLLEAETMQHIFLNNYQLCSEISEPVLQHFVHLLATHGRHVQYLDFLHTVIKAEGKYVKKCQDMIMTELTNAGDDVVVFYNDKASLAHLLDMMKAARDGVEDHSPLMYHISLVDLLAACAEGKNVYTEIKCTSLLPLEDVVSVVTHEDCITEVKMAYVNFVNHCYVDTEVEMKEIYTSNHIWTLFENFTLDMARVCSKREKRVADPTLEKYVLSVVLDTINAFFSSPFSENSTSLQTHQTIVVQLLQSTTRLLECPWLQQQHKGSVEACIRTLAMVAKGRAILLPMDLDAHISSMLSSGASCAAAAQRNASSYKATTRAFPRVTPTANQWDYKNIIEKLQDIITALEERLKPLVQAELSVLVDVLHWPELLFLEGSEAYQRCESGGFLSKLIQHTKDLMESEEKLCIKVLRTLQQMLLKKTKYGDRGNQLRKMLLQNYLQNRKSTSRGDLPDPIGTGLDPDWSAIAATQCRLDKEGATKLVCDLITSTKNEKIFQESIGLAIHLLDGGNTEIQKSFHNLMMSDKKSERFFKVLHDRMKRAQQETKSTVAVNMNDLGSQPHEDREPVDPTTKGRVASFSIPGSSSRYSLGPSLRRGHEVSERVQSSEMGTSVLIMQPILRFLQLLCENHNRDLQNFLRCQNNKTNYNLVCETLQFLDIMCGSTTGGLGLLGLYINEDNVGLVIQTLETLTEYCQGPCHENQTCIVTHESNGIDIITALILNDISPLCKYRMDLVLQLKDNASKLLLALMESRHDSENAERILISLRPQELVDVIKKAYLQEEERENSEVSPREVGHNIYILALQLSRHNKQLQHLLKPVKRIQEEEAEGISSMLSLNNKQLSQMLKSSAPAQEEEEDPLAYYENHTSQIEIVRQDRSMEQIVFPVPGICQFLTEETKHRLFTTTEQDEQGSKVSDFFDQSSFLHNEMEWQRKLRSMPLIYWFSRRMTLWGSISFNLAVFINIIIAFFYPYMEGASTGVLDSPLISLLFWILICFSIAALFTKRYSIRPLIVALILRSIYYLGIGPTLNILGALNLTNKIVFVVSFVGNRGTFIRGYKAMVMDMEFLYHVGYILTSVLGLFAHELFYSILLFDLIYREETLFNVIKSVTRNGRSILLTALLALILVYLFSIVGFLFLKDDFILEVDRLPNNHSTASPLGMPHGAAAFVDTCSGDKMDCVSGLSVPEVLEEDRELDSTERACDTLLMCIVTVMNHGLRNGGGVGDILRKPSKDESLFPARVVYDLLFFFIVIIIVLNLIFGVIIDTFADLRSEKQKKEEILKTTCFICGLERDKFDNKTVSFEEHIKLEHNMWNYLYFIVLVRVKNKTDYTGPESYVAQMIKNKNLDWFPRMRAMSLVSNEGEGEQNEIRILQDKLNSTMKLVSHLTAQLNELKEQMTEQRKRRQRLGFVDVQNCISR
UniProt Q14571: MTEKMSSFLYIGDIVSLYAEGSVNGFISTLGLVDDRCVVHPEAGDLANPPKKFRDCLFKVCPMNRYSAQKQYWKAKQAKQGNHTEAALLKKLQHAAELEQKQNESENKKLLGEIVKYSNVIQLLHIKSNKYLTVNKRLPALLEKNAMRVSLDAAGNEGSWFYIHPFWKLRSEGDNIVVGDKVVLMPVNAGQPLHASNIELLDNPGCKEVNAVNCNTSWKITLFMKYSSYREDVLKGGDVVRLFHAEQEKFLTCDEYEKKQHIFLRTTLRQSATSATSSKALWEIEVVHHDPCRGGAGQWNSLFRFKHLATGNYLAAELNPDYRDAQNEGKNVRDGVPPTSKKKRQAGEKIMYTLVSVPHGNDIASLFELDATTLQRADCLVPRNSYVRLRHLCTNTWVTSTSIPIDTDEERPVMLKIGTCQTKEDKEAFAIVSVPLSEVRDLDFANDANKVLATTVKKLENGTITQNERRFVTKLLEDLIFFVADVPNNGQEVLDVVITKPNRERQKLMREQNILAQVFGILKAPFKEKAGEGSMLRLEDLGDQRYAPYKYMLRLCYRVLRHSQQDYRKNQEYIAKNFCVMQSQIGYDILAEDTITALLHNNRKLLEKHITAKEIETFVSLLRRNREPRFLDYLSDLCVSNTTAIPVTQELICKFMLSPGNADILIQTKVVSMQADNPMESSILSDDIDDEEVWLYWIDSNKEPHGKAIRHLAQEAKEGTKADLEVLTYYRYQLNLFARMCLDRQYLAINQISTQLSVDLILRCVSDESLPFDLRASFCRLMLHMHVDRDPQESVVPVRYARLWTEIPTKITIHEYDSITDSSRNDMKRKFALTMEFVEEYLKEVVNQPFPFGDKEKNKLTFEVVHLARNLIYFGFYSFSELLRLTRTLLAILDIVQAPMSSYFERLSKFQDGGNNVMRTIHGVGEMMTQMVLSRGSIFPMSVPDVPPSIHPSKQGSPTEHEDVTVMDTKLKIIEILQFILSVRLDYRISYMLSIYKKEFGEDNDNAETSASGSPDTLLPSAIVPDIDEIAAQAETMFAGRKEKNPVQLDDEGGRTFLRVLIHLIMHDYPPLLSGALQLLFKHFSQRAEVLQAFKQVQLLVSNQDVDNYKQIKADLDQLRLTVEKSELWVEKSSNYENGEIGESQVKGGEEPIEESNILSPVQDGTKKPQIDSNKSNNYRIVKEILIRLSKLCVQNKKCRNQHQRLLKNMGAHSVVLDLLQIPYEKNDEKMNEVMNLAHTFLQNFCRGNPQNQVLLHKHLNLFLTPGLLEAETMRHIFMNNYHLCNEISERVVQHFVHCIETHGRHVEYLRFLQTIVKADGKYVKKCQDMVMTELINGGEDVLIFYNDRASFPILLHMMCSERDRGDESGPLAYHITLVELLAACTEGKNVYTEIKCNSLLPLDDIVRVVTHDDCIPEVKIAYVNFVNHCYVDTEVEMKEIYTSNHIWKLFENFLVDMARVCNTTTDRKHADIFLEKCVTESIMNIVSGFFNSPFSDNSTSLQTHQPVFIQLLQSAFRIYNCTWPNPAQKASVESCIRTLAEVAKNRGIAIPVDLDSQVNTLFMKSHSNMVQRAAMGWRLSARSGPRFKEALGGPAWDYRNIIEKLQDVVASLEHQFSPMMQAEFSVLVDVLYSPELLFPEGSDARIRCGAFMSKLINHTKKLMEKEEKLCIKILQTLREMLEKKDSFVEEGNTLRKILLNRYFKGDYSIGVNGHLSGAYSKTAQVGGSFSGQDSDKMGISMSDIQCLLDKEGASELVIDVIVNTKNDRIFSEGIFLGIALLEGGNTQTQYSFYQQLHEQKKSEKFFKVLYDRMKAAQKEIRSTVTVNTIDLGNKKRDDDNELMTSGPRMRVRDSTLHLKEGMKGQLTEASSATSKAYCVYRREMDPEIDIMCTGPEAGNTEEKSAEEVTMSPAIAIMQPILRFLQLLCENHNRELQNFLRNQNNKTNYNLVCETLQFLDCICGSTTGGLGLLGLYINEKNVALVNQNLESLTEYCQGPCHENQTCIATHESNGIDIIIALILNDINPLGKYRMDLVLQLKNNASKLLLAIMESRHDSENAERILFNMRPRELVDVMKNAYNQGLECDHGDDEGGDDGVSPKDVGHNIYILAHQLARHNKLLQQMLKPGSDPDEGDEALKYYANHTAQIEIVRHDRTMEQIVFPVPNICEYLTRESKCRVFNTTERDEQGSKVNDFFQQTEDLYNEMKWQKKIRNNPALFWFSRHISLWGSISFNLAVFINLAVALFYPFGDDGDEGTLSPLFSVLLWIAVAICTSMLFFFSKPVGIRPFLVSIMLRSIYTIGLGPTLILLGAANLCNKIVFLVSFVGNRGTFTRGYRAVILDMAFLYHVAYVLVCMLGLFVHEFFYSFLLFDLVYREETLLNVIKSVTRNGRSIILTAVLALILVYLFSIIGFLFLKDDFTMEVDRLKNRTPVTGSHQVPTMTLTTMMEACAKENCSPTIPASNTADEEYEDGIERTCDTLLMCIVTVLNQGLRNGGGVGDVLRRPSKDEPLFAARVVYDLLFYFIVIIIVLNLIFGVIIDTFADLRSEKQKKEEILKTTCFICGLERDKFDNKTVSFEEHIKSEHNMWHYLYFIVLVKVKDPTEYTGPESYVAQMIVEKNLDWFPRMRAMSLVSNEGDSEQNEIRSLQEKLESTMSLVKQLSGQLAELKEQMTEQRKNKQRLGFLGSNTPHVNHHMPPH

The text below walks through data of paper PMC5472764.

No constants are given. Whether binding was seen depends on the method and setting. Binding seen in cells or lysates may run through a third protein. Here binding means that the protein was enriched with, or labelled near, the bait; the list need not be complete. Tags and fused reporters may be left off the sequences shown.

With “IP3R3, endogenous in Jurkat cells (from UniProt Q14573 1-2671) (receptor)”, the binding entry was “binds”. In the case of “IP3R2, endogenous in Jurkat cells (from UniProt Q14571 1-2701) (receptor)”, the binding entry is “binds”.
